According to US20190111114A1 (BRIGHAM AND WOMEN S HOSPITAL, published 2019):
Results are given in words; binding and its absence hold for the method and conditions named. Binding seen in cells or lysates may run through a third protein. Some entries that bind do so weakly or less than the wild type.

Sequences of proteins named here, by UniProt entry; tags and fusion partners are left off. A change or cut given only in a name is not applied to a line headed by its entry.
UniProt O95365: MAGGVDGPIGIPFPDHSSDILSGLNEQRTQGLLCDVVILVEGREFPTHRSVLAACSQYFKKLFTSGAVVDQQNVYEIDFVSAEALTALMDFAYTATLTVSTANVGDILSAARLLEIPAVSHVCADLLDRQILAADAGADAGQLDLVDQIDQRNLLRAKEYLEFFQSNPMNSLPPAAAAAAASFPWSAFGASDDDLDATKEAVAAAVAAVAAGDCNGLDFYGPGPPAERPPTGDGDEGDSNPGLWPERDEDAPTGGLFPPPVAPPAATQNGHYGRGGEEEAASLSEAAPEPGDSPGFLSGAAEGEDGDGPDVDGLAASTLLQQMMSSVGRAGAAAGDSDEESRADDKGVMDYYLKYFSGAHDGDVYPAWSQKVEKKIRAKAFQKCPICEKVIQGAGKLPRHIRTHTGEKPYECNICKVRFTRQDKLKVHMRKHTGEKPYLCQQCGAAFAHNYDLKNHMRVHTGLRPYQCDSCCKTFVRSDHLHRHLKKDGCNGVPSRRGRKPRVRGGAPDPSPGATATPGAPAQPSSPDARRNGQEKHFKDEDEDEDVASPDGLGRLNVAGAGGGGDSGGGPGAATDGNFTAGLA
UniProt Q8WXI9: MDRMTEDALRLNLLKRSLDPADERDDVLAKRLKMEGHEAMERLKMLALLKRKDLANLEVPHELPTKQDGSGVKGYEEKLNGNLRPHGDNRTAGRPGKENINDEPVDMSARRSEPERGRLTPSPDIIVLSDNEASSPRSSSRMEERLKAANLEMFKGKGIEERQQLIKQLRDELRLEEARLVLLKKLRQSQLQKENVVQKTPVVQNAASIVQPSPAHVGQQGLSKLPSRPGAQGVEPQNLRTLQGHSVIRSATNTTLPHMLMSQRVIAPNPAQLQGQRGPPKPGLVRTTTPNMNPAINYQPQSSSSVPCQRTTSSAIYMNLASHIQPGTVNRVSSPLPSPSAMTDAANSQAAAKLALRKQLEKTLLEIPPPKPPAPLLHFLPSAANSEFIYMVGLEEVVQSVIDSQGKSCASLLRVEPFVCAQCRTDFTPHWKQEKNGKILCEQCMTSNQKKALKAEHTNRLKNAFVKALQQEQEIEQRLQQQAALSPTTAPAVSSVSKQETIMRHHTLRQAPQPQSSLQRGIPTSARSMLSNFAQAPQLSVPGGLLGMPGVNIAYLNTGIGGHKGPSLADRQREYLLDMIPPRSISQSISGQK
UniProt Q9NRL2: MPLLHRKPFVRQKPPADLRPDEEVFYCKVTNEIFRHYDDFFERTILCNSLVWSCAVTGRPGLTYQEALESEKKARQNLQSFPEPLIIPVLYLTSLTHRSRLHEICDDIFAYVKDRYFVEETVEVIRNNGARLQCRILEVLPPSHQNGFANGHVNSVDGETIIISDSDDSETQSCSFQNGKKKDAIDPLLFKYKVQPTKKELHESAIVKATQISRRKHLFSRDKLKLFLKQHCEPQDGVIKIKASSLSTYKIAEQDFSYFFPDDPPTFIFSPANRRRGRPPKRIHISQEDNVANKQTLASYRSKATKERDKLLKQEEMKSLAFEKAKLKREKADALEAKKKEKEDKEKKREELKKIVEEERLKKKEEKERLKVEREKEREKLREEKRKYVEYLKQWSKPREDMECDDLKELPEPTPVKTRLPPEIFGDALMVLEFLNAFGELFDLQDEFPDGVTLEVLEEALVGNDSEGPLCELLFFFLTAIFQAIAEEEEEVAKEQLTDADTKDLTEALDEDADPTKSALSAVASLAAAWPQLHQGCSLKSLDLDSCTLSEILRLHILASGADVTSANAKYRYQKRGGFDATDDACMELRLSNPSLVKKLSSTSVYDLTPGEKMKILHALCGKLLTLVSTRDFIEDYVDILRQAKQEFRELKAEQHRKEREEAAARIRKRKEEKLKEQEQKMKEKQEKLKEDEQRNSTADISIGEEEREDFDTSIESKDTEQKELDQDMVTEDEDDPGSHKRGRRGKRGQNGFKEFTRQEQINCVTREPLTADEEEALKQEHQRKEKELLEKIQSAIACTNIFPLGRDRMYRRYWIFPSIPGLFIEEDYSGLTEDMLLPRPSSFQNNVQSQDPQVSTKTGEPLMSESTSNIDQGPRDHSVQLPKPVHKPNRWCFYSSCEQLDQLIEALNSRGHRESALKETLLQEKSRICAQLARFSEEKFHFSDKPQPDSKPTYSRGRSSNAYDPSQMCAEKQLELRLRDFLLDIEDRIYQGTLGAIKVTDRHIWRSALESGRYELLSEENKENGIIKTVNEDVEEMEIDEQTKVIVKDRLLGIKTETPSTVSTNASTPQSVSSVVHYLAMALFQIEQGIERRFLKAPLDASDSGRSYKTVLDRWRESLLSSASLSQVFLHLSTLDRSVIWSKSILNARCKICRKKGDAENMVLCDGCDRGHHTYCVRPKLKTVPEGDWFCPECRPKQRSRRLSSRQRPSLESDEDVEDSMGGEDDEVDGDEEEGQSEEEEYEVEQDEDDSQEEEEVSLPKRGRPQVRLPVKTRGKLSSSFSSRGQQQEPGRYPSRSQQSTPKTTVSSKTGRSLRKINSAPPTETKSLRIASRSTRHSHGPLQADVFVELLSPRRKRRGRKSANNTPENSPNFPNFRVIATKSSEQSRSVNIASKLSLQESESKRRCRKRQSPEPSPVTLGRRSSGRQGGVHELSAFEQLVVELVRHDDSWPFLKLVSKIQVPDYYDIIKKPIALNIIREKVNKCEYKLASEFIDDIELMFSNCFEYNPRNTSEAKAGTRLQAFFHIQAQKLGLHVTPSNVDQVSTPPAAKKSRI
UniProt Q12873: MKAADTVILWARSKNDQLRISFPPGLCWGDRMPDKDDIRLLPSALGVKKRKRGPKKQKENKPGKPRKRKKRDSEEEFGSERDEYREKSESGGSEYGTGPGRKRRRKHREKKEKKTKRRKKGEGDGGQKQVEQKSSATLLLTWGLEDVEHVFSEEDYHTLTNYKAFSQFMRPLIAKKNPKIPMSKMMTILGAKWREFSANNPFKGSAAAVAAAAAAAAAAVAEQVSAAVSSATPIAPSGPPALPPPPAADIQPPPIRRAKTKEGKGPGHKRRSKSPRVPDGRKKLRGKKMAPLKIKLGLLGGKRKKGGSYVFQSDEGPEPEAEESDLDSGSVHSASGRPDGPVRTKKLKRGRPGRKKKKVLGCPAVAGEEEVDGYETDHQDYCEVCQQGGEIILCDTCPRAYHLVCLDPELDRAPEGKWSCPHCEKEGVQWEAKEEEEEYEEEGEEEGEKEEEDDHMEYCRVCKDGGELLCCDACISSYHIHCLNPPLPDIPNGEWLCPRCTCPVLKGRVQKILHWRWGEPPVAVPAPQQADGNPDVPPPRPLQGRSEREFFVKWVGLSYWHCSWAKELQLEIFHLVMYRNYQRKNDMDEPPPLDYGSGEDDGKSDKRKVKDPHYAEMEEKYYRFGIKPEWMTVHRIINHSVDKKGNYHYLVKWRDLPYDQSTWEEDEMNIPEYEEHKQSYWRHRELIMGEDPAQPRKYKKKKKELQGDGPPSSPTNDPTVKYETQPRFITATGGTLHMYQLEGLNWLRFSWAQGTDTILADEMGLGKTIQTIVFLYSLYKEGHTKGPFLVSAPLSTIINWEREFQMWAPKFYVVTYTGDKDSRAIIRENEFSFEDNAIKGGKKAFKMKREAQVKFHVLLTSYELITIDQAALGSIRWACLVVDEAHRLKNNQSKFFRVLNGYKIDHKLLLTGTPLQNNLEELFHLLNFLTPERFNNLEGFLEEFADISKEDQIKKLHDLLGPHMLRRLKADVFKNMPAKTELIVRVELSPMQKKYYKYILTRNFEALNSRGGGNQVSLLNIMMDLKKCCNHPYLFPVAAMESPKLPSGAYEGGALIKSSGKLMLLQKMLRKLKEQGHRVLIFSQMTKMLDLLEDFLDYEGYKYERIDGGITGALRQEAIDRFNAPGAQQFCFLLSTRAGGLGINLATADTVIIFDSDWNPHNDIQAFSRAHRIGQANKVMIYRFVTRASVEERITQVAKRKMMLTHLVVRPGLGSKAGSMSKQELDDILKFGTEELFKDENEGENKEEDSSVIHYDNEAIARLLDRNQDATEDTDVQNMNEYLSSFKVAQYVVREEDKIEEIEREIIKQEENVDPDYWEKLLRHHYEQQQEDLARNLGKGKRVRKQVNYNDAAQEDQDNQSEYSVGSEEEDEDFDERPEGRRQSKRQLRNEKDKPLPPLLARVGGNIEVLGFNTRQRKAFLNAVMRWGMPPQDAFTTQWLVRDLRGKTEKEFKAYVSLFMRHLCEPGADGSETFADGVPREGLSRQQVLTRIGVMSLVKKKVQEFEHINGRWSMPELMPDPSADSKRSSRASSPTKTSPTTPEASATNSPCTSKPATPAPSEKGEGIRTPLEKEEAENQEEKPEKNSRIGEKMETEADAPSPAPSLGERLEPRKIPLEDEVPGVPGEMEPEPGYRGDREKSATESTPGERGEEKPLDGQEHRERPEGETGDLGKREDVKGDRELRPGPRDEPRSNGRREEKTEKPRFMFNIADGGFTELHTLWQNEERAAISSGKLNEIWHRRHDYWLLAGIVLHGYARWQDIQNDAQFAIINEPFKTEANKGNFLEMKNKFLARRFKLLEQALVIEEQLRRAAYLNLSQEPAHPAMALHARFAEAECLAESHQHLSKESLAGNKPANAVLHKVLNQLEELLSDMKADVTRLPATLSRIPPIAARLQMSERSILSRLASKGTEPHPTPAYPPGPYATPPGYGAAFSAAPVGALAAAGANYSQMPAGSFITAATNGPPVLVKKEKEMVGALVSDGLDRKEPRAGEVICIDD

Tests used:
[1] = target: human LRF/ZBTB7A, endogenous (293T cells; HSPC-derived erythroblasts) (human) (UniProt O95365); assay: co-immunoprecipitation with anti-Flag antibody from 293T lysate, Western blot with anti-LRF antibody
[2] = target: human LRF/ZBTB7A, endogenous (293T cells; HSPC-derived erythroblasts) (human) (UniProt O95365); assay: co-immunoprecipitation (FIG. 17B)
[3] = target: human LRF/ZBTB7A, endogenous (293T cells; HSPC-derived erythroblasts) (human) (UniProt O95365); assay: reciprocal co-immunoprecipitation with anti-GATAD2B antibody, human erythroid cell lysate
[4] = target: GATAD2B, endogenous, in human HSPC-derived erythroblasts (human) (UniProt Q8WXI9); assay: co-immunoprecipitation with anti-LRF antibody, human proerythroblast lysate
[5] = target: GATAD2B, endogenous, in human HSPC-derived erythroblasts (human) (UniProt Q8WXI9); assay: co-immunoprecipitation with anti-LRF antibody, HSPC-derived erythroblasts

Row | Substance | binding [1] | binding [2] | also measured
1 | Flag-tagged BAZ1A (pcDNA3.1-hACF1-Flag), expressed in 293T cells (from UniProt Q9NRL2 1-1556) | binds | – | –
2 | GATAD2B, endogenous, in human HSPC-derived erythroblasts (from UniProt Q8WXI9 1-593) | – | – | binding [3]: binds
3 | human LRF/ZBTB7A, endogenous (293T cells; HSPC-derived erythroblasts) (from UniProt O95365 1-584) | – | – | binding [4]: binds; binding [5]: binds

Further lines, with some results ahead:

Row | binding [1] | binding [2] | Substance | also measured
4 | binds | binds | Flag-tagged human CHD3 (pCI-neo3-Flag-hCHD3), expressed in 293T cells (from UniProt Q12873 1-2000) | –
5 | binds | binds | Flag-tagged human GATAD2B/p66beta (pCMV-Tag2B-Flag-p66beta), expressed in 293T cells (from UniProt Q8WXI9 1-593) | –
